The assay addresses the first WW domain of WWOX (WWOXww), fluorescent construct for FRET (murine). The experiment in a line: FRET or BRET; three-protein FRET microscopy in COS7 cells transfected with the first WW domain of WWOX (WWOXww), TIAF1 and p53, treated with Prima-1 over time; FRETc. In general terms: Bioluminescence resonance energy transfer reports proximity on the nanometre scale.

These are yes or no findings as the source states them, for the method shown. In cells and extracts the contact can be indirect. Binding calls can cover weak binding; strength is not graded here. Where a sequence is shown, tags or fusion partners need not be part of it.

B1: TIAF1-EGFP (protein, UniProt O95411 1-115)
chain: MSSPSSPFREQSFLCAAGDAGEESRVQVLKNEVRRGSPVLLGWVEQAYADKCVCGPSAPPAPTPPSLSQRVMCNDLFKVNPFQLQQFRADPSTASLLLCPGGLDHKLNLRGKAWG
As to B1, the binding entry was “binds”.

These data come from PMC6637503.
